± gives the uncertainty stated by the source. Many entries were measured with a wide error.
Assay: self-splicing fitness, log relative to wild type (ln ratio); higher = more splicing; Tetrahymena group I intron in knt gene, E. coli kanamycin selection, DiMSum; sequences stand for … in CUCUCU…GGAGGGAAAAGUUAUCAGGCAUGCACCUGGUAGCUAGUCUUUAAACCAAUAGAUUGCAUCGGUUUAAAAGGCAAGACCGUCAAAUUGCGGGAAAGGGGUCAACAGCCGUUCAGUACCAAGUCUCAGGGGAAACUUUGAGAUGGCCUUGCAAAGGGUAUGGUAAUAAGCUGACGGACAUGGUCCUAACCACGCAGCCAAGUCCUAAGUCAACAGAUCUUCUGUUGAUAUGGAUGCAGUUCACAGACUAAAUGUCGGUCGGGGAAGAUGUAUUCUUCUCAUAAGAUAUAGUCGGACCUCUCCUUAAUGGGAGCUAGCGGAUGAAGUGAUGCAACACUGGAGCCGCUGGGAACUAAUUUGUAUGCGAAAGUAUAUUGAUUAGUUUUGGAGUACUCGUGGUCG
Summary of the method: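 Six replicate transformations of E. coli BL21(DE3) with a pET-22b(+) library were grown overnight at 37°C or 30°C. The library randomised all eight P1ex-region intron nucleotides, the intron lying in the knt kanamycin-resistance gene, and plates were LB agar with or without 25 μg/mL kanamycin plus 100 μg/mL carbenicillin, 50 μM IPTG and 0.2% rhamnose. Pooled colonies were amplicon-sequenced on an Illumina HiSeq 2500, and fitness is the DiMSum error-weighted combination of wild-type-normalised replicate fold changes, kanamycin versus none.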

Sequence | self-splicing fitness (ln) (37 °C) | self-splicing fitness (ln) (30 °C)
GCUCAGCAAUAUUACGCUGA | -2.5 ± 0.54 | –
AAUCAGCAAUAUUACGCCCC | -1.79 ± 1.2 | -1.56 ± 0.87
UUCUAGCAAUAUUACGAACC | – | -2.47 ± 0.78
UCGCAGCAAUAUUACGCAGC | – | -3.91 ± 0.73
UGGGAGCAAUAUUACGUAAC | -3.75 ± 0.73 | –
CAGGAGCAAUAUUACGCAAU | – | -3 ± 0.5
CCAGAGCAAUAUUACGGAGC | -4.51 ± 0.59 | –
AAUUAGCAAUAUUACGAGUC | – | -5.29 ± 0.72
UCGGAGCAAUAUUACGUGUA | – | -3.88 ± 0.6
UAAUAGCAAUAUUACGACGC | -2.4 ± 0.55 | –
CGAGAGCAAUAUUACGAAGU | – | -4.35 ± 1
CGUAAGCAAUAUUACGAUGC | – | -3.96 ± 0.6
UUUCAGCAAUAUUACGCCAU | -3.34 ± 0.52 | -4.23 ± 0.72
CGAUAGCAAUAUUACGGCCC | 0.445 ± 0.86 | -0.844 ± 1
CGUGAGCAAUAUUACGGAUA | -2.71 ± 0.34 | -3.1 ± 0.3
GGGCAGCAAUAUUACGCGGC | – | -2.78 ± 0.54
GUGGAGCAAUAUUACGUACG | – | -4.29 ± 0.51
AAGCAGCAAUAUUACGCAUC | -3.65 ± 0.51 | –
CUCUAGCAAUAUUACGUCAC | -4.1 ± 0.59 | –
CUAGAGCAAUAUUACGGUCC | -2.44 ± 0.63 | -3.36 ± 0.61
UGCCAGCAAUAUUACGGCAG | -1.15 ± 0.1 | -2.25 ± 0.093
GGAAAGCAAUAUUACGAGGC | -1.94 ± 0.79 | -4.21 ± 1
UCAGAGCAAUAUUACGGGCC | -2.57 ± 1.1 | –
CCGAAGCAAUAUUACGGUGA | – | -5.03 ± 0.51
ACUAAGCAAUAUUACGACUU | 0.924 ± 0.12 | -0.429 ± 0.093
UCCAAGCAAUAUUACGUCCC | -1.76 ± 0.83 | -2.78 ± 0.55

Sequence | self-splicing fitness (ln) (37 °C) | self-splicing fitness (ln) (30 °C)
UCAUAGCAAUAUUACGCUCU | -2.25 ± 0.56 | -3.16 ± 0.65
GGGGAGCAAUAUUACGCAAU | – | -2.37 ± 0.56
UACGAGCAAUAUUACGCCAU | – | -2.44 ± 0.55
AACGAGCAAUAUUACGGCAG | – | -4.19 ± 1
CGGAAGCAAUAUUACGCGAC | -3.18 ± 0.74 | –
UAUGAGCAAUAUUACGAGGA | – | -4.01 ± 0.73
GGAAAGCAAUAUUACGCUGC | -2.67 ± 0.76 | –
UGCGAGCAAUAUUACGGAUU | – | -4.27 ± 0.51
UGGGAGCAAUAUUACGACAU | -2.9 ± 0.05 | -3.84 ± 0.039
AGUUAGCAAUAUUACGGUUU | -0.317 ± 0.1 | -0.98 ± 0.071
UCUUAGCAAUAUUACGAGAC | -2.85 ± 0.54 | –
CUACAGCAAUAUUACGAUGC | -2.81 ± 0.2 | -3.88 ± 0.39
UUUCAGCAAUAUUACGCUGA | -2.24 ± 0.42 | -3.32 ± 0.47
CAUUAGCAAUAUUACGACGC | -0.833 ± 0.54 | –
CAGGAGCAAUAUUACGGACA | -3.43 ± 0.6 | -3.14 ± 0.76
UUAUAGCAAUAUUACGGGCC | -1.82 ± 0.69 | -2.25 ± 1.1
UCCUAGCAAUAUUACGCCCG | – | -3.38 ± 0.59
UCGGAGCAAUAUUACGUCCC | -2.2 ± 1.1 | –
GCGGAGCAAUAUUACGCUAC | -0.687 ± 0.65 | -3.35 ± 1
CUUCAGCAAUAUUACGACGA | – | -3.55 ± 0.52
GAGGAGCAAUAUUACGCCCG | – | -0.699 ± 0.93
UCUGAGCAAUAUUACGAGAC | -3.98 ± 0.51 | –
ACACAGCAAUAUUACGAUAG | -1.62 ± 0.069 | -2.96 ± 0.074
GAGGAGCAAUAUUACGGACC | – | -3.34 ± 1
AUUGAGCAAUAUUACGAUGA | – | -4.47 ± 0.72
UGGGAGCAAUAUUACGAUCC | -1.98 ± 0.81 | –

Sequence | self-splicing fitness (ln) (37 °C) | self-splicing fitness (ln) (30 °C)
GCGUAGCAAUAUUACGCACG | 0.864 ± 1.2 | –
GGUGAGCAAUAUUACGGGCG | -0.473 ± 0.14 | -1.39 ± 0.14
UCCGAGCAAUAUUACGGGCC | -2.94 ± 0.35 | -3.8 ± 0.3
UACGAGCAAUAUUACGAAAU | – | -4.91 ± 0.51
CUAGAGCAAUAUUACGGUCG | -0.264 ± 0.13 | 0.342 ± 0.11
GGGUAGCAAUAUUACGUUAG | – | -3.63 ± 0.52
UCUAAGCAAUAUUACGCCGC | -3.38 ± 0.53 | -2.69 ± 0.29
UUCAAGCAAUAUUACGCACA | 0.153 ± 0.13 | -0.531 ± 0.089
UUGUAGCAAUAUUACGGAAC | – | -2.7 ± 0.63
UCAUAGCAAUAUUACGUCAC | -1.95 ± 0.81 | -3.41 ± 0.56
CGCGAGCAAUAUUACGCAUU | -3.29 ± 0.35 | -2.71 ± 0.18
GACUAGCAAUAUUACGUCAC | -3 ± 0.53 | –
GUUUAGCAAUAUUACGGCCC | 0.553 ± 0.63 | –
UCGGAGCAAUAUUACGUAUG | 1.95 ± 0.73 | -2.21 ± 1.1
CUCGAGCAAUAUUACGGAUA | -3.68 ± 0.46 | -2.79 ± 0.28
GAUAAGCAAUAUUACGAGGC | – | -4.1 ± 1
GAACAGCAAUAUUACGAAUC | -1.9 ± 0.13 | -1.76 ± 0.08
UUAGAGCAAUAUUACGAGGG | – | -4.08 ± 0.61
UGAGAGCAAUAUUACGCAGG | – | -4.58 ± 0.59
UUAUAGCAAUAUUACGGAGC | – | -4.45 ± 0.6
CUUGAGCAAUAUUACGUGUU | -2.54 ± 0.23 | -4.81 ± 1
CUGGAGCAAUAUUACGGGCA | -0.595 ± 0.71 | –
GAUUAGCAAUAUUACGCCAG | -0.806 ± 0.34 | -2.17 ± 0.32
AGGAAGCAAUAUUACGUCCG | 0.408 ± 0.2 | -0.623 ± 0.16
GUCGAGCAAUAUUACGCCGG | – | -4.11 ± 0.52

Complete entries from above.
UGAGAGCAAUAUUACGCAGG as listed: self-splicing fitness (ln) (30 °C) = -4.58 ± 0.59
GAACAGCAAUAUUACGAAUC as listed: self-splicing fitness (ln) (37 °C) = -1.9 ± 0.13; self-splicing fitness (ln) (30 °C) = -1.76 ± 0.08
CUCGAGCAAUAUUACGGAUA as listed: self-splicing fitness (ln) (37 °C) = -3.68 ± 0.46; self-splicing fitness (ln) (30 °C) = -2.79 ± 0.28
